The text below walks through data of publication PMC8373943.

The chains behind the UniProt entries cited, without tags or fusion partners.
UniProt Q9H9B1: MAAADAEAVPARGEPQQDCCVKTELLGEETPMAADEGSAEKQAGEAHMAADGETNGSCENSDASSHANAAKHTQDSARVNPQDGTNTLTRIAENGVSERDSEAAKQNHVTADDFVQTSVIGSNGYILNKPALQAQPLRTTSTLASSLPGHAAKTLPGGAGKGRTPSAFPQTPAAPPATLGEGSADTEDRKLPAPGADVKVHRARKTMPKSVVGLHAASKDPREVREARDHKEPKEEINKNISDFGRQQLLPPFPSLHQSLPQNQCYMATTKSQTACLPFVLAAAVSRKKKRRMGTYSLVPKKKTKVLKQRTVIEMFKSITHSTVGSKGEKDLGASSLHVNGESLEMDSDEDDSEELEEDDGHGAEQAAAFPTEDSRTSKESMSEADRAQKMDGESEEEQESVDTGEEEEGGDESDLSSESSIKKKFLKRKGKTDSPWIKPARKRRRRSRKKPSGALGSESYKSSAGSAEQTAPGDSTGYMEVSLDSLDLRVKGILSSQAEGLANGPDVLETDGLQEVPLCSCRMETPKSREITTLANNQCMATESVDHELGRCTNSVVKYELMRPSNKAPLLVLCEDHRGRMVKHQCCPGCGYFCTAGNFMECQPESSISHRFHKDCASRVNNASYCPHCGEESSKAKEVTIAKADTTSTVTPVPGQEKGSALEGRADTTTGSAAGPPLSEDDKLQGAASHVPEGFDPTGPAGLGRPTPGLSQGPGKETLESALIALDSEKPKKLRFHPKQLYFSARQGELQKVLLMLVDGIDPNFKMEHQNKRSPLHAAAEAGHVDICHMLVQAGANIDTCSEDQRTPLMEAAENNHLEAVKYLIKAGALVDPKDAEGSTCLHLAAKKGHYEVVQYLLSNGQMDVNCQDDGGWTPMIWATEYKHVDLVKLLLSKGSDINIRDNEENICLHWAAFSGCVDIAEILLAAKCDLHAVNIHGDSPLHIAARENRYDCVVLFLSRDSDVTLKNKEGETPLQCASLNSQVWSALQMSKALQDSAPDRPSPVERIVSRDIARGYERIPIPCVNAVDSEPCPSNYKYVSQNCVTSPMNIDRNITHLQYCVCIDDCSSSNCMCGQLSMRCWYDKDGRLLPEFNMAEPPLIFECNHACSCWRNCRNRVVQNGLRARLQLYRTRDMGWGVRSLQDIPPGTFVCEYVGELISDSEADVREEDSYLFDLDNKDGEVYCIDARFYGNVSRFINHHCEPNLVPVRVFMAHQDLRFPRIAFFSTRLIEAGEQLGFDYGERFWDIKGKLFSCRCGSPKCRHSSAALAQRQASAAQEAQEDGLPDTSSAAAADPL
UniProt Q9NQS7: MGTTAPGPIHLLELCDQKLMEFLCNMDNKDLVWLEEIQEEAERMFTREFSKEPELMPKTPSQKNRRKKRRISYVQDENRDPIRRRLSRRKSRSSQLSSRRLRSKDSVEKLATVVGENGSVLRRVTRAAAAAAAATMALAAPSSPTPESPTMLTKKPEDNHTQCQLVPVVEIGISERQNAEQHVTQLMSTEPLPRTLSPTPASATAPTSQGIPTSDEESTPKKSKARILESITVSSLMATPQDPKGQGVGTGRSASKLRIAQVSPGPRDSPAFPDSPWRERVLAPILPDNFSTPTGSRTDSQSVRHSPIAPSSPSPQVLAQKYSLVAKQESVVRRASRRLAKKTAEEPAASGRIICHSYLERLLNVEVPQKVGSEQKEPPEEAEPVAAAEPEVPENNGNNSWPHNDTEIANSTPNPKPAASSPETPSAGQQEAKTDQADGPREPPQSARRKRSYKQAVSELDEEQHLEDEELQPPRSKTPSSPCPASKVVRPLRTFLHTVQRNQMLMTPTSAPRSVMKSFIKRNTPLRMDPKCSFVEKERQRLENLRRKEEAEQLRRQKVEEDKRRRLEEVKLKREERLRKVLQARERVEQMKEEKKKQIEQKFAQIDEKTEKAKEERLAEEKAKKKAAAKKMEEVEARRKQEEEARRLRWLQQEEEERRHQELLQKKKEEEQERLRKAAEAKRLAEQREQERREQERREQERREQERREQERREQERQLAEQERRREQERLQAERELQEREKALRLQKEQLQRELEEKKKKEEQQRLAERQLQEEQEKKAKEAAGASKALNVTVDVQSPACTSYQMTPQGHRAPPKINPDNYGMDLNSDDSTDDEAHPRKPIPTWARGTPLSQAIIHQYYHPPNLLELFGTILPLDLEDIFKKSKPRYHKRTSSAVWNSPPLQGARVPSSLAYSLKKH
UniProt Q8IWI9: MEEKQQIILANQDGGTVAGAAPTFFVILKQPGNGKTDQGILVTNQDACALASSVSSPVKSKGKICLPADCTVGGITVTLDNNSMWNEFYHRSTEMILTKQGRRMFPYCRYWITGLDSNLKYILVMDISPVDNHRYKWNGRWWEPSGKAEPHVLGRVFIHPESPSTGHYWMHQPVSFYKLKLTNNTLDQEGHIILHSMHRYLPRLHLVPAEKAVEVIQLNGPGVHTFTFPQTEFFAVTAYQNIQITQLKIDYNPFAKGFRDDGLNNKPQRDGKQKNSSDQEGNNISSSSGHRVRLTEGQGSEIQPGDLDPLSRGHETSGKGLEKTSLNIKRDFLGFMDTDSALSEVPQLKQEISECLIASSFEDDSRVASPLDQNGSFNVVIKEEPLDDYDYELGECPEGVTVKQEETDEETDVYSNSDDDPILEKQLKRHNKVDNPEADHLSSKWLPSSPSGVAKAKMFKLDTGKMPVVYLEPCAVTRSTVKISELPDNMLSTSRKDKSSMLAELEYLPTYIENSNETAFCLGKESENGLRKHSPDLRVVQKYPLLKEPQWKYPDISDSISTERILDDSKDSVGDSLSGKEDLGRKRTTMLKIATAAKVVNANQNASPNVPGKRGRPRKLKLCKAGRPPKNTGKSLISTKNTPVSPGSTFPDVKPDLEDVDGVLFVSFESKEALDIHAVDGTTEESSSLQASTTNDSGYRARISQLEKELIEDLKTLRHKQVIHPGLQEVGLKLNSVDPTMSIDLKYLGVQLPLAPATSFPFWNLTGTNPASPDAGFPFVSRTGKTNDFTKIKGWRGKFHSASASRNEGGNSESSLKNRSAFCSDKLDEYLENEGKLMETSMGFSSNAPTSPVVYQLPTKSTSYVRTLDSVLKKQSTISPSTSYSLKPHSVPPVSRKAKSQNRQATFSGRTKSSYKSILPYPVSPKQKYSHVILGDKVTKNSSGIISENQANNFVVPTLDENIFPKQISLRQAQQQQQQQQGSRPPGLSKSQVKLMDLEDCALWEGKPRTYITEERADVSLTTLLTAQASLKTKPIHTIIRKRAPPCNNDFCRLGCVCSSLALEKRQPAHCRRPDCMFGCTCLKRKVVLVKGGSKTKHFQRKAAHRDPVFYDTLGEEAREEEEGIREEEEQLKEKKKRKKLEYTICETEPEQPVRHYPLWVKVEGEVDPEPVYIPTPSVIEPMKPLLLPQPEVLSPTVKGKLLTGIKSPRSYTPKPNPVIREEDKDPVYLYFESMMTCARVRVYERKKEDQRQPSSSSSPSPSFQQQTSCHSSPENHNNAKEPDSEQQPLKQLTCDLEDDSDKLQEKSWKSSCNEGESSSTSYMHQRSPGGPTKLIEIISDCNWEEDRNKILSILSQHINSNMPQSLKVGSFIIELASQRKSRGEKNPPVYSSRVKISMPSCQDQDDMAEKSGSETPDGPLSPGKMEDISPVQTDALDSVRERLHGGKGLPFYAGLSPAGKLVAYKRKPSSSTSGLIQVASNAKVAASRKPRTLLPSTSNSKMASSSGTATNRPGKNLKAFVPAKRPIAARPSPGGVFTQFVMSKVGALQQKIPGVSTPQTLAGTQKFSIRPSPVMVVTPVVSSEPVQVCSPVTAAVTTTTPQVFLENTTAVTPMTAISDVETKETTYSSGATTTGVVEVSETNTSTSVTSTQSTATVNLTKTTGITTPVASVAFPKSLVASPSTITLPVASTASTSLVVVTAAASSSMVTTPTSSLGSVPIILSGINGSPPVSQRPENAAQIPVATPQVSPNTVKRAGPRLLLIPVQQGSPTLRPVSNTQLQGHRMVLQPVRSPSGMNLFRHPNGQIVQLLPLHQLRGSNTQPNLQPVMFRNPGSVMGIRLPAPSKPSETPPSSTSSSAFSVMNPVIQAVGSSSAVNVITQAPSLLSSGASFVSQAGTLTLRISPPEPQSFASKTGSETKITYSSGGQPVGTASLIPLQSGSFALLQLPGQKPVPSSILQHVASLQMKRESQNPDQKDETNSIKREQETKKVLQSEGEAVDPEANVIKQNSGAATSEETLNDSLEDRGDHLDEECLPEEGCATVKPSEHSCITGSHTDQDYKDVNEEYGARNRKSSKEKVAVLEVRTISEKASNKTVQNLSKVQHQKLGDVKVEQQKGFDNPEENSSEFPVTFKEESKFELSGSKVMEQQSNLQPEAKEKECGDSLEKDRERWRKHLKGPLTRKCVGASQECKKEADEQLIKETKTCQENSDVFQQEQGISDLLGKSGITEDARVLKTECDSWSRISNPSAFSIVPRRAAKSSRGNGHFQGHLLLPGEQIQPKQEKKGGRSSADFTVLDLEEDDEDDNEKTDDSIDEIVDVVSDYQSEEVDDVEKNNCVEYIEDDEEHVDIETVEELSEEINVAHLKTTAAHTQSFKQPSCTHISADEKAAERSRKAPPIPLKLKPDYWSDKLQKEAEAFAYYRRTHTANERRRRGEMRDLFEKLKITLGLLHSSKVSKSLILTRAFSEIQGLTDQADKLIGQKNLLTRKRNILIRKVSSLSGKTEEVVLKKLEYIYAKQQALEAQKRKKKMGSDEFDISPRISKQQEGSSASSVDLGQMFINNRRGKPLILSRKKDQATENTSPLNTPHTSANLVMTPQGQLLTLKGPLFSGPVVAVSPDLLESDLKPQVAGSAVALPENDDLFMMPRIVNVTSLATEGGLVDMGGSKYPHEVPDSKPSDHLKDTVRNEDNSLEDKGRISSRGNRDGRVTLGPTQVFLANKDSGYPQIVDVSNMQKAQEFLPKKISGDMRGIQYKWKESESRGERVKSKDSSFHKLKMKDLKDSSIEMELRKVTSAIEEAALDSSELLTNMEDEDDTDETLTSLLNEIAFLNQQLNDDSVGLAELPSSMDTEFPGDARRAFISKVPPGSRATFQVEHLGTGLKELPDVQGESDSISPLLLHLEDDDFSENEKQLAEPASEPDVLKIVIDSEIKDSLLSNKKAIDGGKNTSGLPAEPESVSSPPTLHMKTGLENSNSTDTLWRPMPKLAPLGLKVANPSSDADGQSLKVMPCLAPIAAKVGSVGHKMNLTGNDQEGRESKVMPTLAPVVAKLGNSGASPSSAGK
UniProt P20700: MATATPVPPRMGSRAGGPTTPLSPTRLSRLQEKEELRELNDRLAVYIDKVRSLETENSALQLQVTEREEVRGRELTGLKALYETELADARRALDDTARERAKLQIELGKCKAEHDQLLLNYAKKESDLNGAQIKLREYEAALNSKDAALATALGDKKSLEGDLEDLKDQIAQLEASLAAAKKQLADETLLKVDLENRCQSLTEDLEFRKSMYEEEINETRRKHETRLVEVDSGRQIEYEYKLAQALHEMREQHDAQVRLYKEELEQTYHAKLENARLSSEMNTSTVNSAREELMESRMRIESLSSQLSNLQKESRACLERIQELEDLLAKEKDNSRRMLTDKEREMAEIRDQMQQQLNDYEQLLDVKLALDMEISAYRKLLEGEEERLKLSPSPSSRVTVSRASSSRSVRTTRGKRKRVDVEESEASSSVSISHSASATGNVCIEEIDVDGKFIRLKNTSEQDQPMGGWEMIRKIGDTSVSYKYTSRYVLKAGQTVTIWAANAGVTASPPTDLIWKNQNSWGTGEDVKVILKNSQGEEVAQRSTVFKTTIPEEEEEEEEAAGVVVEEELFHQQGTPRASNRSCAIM

These are yes or no findings as the source states them, for the method shown. In cells and extracts the contact can be indirect. Here binding means that the protein was enriched with, or labelled near, the bait; the list need not be complete. For some of these results: Sequences can lack the tags named with a protein.

Assay [1] has as its target T1, endogenous FLYWCH1 fused to miniTurboID (knock-in) (human (endogenous in HeLa)) (UniProt Q4VC44).
T1 sequence: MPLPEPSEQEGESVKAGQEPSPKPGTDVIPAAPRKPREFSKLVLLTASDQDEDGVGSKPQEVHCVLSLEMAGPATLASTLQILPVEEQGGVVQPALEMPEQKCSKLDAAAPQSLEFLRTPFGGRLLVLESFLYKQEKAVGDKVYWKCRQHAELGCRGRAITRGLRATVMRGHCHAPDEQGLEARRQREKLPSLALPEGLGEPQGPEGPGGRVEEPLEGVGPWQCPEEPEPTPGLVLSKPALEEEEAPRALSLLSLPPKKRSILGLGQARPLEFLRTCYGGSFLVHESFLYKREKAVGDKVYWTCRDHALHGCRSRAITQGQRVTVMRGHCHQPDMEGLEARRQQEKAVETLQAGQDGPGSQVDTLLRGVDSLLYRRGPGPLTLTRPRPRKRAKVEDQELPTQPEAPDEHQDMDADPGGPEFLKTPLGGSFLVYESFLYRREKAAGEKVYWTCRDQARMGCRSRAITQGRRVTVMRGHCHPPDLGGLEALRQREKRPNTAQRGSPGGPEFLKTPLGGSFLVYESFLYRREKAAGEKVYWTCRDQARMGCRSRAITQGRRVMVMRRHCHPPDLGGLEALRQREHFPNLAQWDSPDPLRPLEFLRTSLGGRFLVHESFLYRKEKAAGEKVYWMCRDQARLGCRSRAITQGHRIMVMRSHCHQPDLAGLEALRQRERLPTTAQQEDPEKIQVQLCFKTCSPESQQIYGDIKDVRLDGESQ
In words: proximity labelling; FLYWCH1-miniTurboID knock-in HeLa cells with biotin compared to wild-type HeLa cells with biotin; nuclei, RIPA, streptavidin beads with ethidium bromide, LC-MS (n = 3).

Assay [2] addresses T2, Emerin (human (endogenous in HeLa and primary human fibroblasts)) (UniProt P50402).
T2 sequence: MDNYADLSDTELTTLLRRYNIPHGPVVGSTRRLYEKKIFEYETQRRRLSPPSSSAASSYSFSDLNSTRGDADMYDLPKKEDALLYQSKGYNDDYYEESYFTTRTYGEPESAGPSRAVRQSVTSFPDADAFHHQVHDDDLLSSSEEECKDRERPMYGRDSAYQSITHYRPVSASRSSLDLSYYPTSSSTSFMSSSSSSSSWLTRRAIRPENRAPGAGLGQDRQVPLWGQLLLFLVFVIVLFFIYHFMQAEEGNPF
In words: proximity labelling; ProtA-Turbo in fixed (4% PFA), permeabilized HeLa cells or nuclei; bait reached by a primary antibody, then ProtA-Turbo, 5 uM biotin 10 min 37 °C; RIPA lysis, streptavidin beads, label-free LC-MS in triplicate against IgG control.

In assay [3] the target is T3, Emerin (human (endogenous in HeLa and primary human fibroblasts)), P50402.
T3 chain: T2 sequence
The description is as above. To be noted: remark: other sources report otherwise.

Regarding EHMT1 (from UniProt Q9H9B1 1-1298), in assay [1], the binding entry is reported as “binds”.

For INCENP (from UniProt Q9NQS7 1-918), the binding entry in assay [1] is on record as “binds”.

As to MGA (from UniProt Q8IWI9 1-3065), the binding entry in assay [1] is “binds”.

As for LMNB1 (from UniProt P20700 1-586), in assay [2], the binding result is listed as “binds”.

B1: CDCA8 (protein, UniProt Q53HL2 1-280)
chain: MAPRKGSSRVAKTNSLRRRKLASFLKDFDREVEIRIKQIESDRQNLLKEVDNLYNIEILRLPKALREMNWLDYFALGGNKQALEEAATADLDITEINKLTAEAIQTPLKSAKTRKVIQVDEMIVEEEEEEENERKNLQTARVKRCPPSKKRTQSIQGKGKGKRSSRANTVTPAVGRLEVSMVKPTPGLTPRFDSRVFKTPGLRTPAAGERIYNISGNGSPLADSKEIFLTVPVGGGESLRLLASDLQRHSIAQLDPEALGNIKKLSNRLAQICSSIRTHK
For B1, the binding entry in assay [1] is given as “binds”.

B2: TMPO, P42167 1-454 (protein)
chain: MPEFLEDPSVLTKDKLKSELVANNVTLPAGEQRKDVYVQLYLQHLTARNRPPLPAGTNSKGPPDFSSDEEREPTPVLGSGAAAAGRSRAAVGRKATKKTDKPRQEDKDDLDVTELTNEDLLDQLVKYGVNPGPIVGTTRKLYEKKLLKLREQGTESRSSTPLPTISSSAENTRQNGSNDSDRYSDNEEDSKIELKLEKREPLKGRAKTPVTLKQRRVEHNQSYSQAGITETEWTSGSSKGGPLQALTRESTRGSRRTPRKRVETSEHFRIDGPVISESTPIAETIMASSNESLVVNRVTGNFKHASPILPITEFSDIPRRAPKKPLTRAEVGEKTEERRVERDILKEMFPYEASTPTGISASCRRPIKGAAGRPLELSDFRMEESFSSKYVPKYVPLADVKSEKTKKGRSIPVWIKILLFVVVAVFLFLVYQAMETNQVNPFSNFLHVDPRKSN
As to B2, the binding entry in assay [3] was “binds”.

B3: LMNB2 (protein, UniProt Q03252 1-620)
chain: MSPPSPGRRREQRRPRAAATMATPLPGRAGGPATPLSPTRLSRLQEKEELRELNDRLAHYIDRVRALELENDRLLLKISEKEEVTTREVSGIKALYESELADARRVLDETARERARLQIEIGKLRAELDEVNKSAKKREGELTVAQGRVKDLESLFHRSEVELAAALSDKRGLESDVAELRAQLAKAEDGHAVAKKQLEKETLMRVDLENRCQSLQEELDFRKSVFEEEVRETRRRHERRLVEVDSSRQQEYDFKMAQALEELRSQHDEQVRLYKLELEQTYQAKLDSAKLSSDQNDKAASAAREELKEARMRLESLSYQLSGLQKQASAAEDRIRELEEAMAGERDKFRKMLDAKEQEMTEMRDVMQQQLAEYQELLDVKLALDMEINAYRKLLEGEEERLKLSPSPSSRVTVSRATSSSSGSLSATGRLGRSKRKRLEVEEPLGSGPSVLGTGTGGSGGFHLAQQASASGSVSIEEIDLEGKFVQLKNNSDKDQSLGNWRIKRQVLEGEEIAYKFTPKYILRAGQMVTVWAAGAGVAHSPPSTLVWKGQSSWGTGESFRTVLVNADGEEVAMRTVKKSSVMRENENGEEEEEEAEFGEEDLFHQQGDPRTTSRGCYVM
For the molecule B3, the binding result in assay [2] is on record as “binds”.
